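Luminescence from an EWS-FLI1 target-promoter (NR0B1) reporter, set against a CMV-promoter reporter, two days after silencing single genes in TC32 Ewing sarcoma cells.
Each siRNA was applied at 20 nM.
A z-score of the log NR0B1-over-CMV signal, less the median of siRNAs with the same seed; more negative means a stronger specific loss of the NR0B1 reporter.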

This is part of the screen; most of the strongest results are not listed here.
Sequences are the guide (antisense) strand, without overhang.

| # | siRNA | gene | seed-corrected z-score |
|---|---|---|---|
| 1 | `UUCGGUGAAGCUCCAAUGG` | POLA1 | -0.8233 |
| 2 | `UUGACGAUCACAGGCAUGU` | SOX13 | 0.2026 |
| 3 | `UCAGCAUUUGUGAUCAUCA` | MRPS16 | 0.4191 |
| 4 | `CCAGGAAAUGCGCAAAUCG` | FOXD4L6 | 0.1286 |
| 5 | `UAUGCAGAAAGUCCAAGGC` | MKNK2 | -0.09841 |
| 6 | `AACUCGAUCACCUGAGUGU` | NKX3-1 | 0.2393 |
| 7 | `UUUUGUAGAUGAUCCAUGC` | UTP6 | -0.09395 |
| 8 | `UAAGGAUCUCCAAAUCGCG` | SLIT3 | -0.1871 |
| 9 | `UGUUUAAUGGGACAGCUCA` | ARHGDIG | 0.06288 |
| 10 | `AAUGGUAUAGGCUCACUGC` | CSN1S1 | -0.1041 |
| 11 | `UGUAGUGCAAGGGUAAUGC` | FAM216A | 0.3596 |
| 12 | `UAUUUGUGGAAACCAAGUC` | CIART | -0.07046 |
| 13 | `UAUGUGAUCGAGAGGAUAC` | UQCRH | 0.6524 |
| 14 | `UCGAGAUUUAGCGCAAGGC` | NSD1 | 0.268 |
| 15 | `AAAGGUGGAAUAGAUAGUG` | HTR1A | -0.8195 |
| 16 | `UUCAUUAAACGCUUGGUUC` | LAMTOR2 | 0.2807 |
| 17 | `UCUCGAUCUACUGUAGUUG` | UBR2 | -0.5831 |
| 18 | `AGCGUGAGCGUCUCGAUCU` | BHLHA15 | 0.8921 |
| 19 | `AUAUAUCUCAACAGCAUCC` | TTC23L | 0.5998 |
| 20 | `UUUCCAAUAAGGCAAUUUC` | GRAMD4 | 0.1549 |
| 21 | `AAAUGAGCAGUAACCGUCC` | CHAF1B | -0.7573 |
| 22 | `UUUAAACUCAGGAUAGAUG` | REG4 | -0.3097 |
| 23 | `UCCCUUGUCAAUCACAGUC` | ADAL | 0.1508 |
| 24 | `UUCGUUUCCUUCCUAAACC` | VENTX | 0.7369 |
| 25 | `UUCAGCUUGACCAGGAUGU` | CFAP99 | -1.411 |
| 26 | `UCAGGUACCAUGAAGAGGU` | KHNYN | -1.353 |
| 27 | `UACAUUGGAGCAACCGUGG` | SVIL | 0.5364 |
| 28 | `UCGCUUCAUAGCAUUGAGC` | INTS12 | -0.5698 |
| 29 | `UUCUUAUCUUGUUCAAUUC` | CCDC67 | 1.532 |
| 30 | `UCACUCGAAAGAUUGGAGU` | DCANP1 | 0.08557 |
| 31 | `AAGAGGUGCAUAAACUUGC` | TNFSF15 | -0.8906 |
| 32 | `UCAUGGAUAGAGACAAGGU` | PRG3 | 0.6939 |
| 33 | `UGGUUAAACUGGAAGCUGC` | CDAN1 | -0.7127 |
| 34 | `UUUGAGGCUAGUGGGAGUC` | FNDC8 | -0.3729 |
| 35 | `UCAGGACUCAAGAACCUGC` | MRPL19 | 0.4955 |
| 36 | `UGAAUAACAUGGGUAGGUC` | HIVEP2 | 0.2693 |
| 37 | `UCUGUGAACGGCAUGGUGA` | CNRIP1 | 0.9768 |
| 38 | `UUCGAACAAAGAGUGACUC` | MAPKAP1 | 0.08554 |
| 39 | `UGAUGUACACGAAUGAUCC` | ACVR1 | -0.9621 |
| 40 | `AAUCAAUCCAUUGGGAUUC` | IGF1R | -0.5117 |
| 41 | `UGUAGGAAUAAUACGCAGG` | REEP1 | -0.01535 |
| 42 | `AGGAGGUCAUCGAUCAUGC` | CCDC114 | -0.0975 |
| 43 | `UCCUAGGUAAGUCAGUCCC` | LEMD3 | -0.861 |
| 44 | `UCUAUCAAGAGGUUUUUCC` | C9orf170 | -0.4866 |
| 45 | `UUAUUCAGCAAUUAUUUCC` | LOC149950 | -0.4936 |
| 46 | `UAUGCAUCAUAGGACAUUC` | HERC5 | 0.5145 |
| 47 | `UAAAGAUAAACUAACACUG` | OR1L1 | 1.216 |
| 48 | `UCAGUAUCUCUUAAGCAGC` | PRKCQ | 0.3753 |
| 49 | `UUUAAUUUCCGGGUACCUG` | SCNN1A | 0.03723 |
| 50 | `UCAUUGCCUAGUCAGCUGC` | LOC646268 | 0.6622 |
| 51 | `UUUCUGGUACAUGAGACCG` | TMEM120A | -0.08257 |
| 52 | `UAAUGACUUGUUACGGUGA` | LINC00898 | -1.021 |
| 53 | `AAAAUUCCACCUUUAACCA` | LOC645100 | -0.4509 |
| 54 | `AUUACAACAAAUGUGCUUU` | SCAMP1-AS1 | 0.1822 |
| 55 | `AUCUCAUCAGUUAGAAACC` | LOC728903 | 0.6058 |
| 56 | `UUAUGGAUCUGGUCAAUGG` | EIF4G1 | 0.336 |
| 57 | `UGCUAUAUUAUCUUUGCCC` | NLRP10 | -0.02564 |
| 58 | `UACGUCACCCAUGAAUUCC` | CES3 | 0.1505 |
| 59 | `UUGUUGAUAAUCGAACUCC` | DGKH | -0.03777 |
| 60 | `UUUGAUACCAAGGCAUUUC` | RMDN1 | 0.4759 |
| 61 | `UUGGUGACGAUGUACGCCC` | LMCD1 | 0.0732 |
| 62 | `AUUCGAAGAACUGCGAUAC` | ALX1 | 0.4432 |
| 63 | `UUGACGACGACCCAGCUCU` | C16orf58 | 0.08129 |
| 64 | `AUAGUUUGAAGAGGGUCUC` | CAPN8 | -1.569 |
| 65 | `UAUGUUAUUGCUUUGACUU` | ZBTB8OS | 0.6334 |
| 66 | `UCACUUACAACUUUGACGA` | THEMIS2 | -1.558 |
| 67 | `AUCGUCGUUACACUUGUUG` | SMPD3 | -0.6009 |
| 68 | `AAGGGUGACAGAUAGCUAC` | OR2AK2 | -0.1887 |
| 69 | `ACGGGUAUAACGAUCAGCG` | RAMP3 | -0.7004 |
| 70 | `UAAUGAGCUGAAGUAAGGC` | MARK2P10 | -1.698 |

6 of the entries, repeated:

| siRNA | gene | seed-corrected z-score |
|---|---|---|
| `UGUUUAAUGGGACAGCUCA` | ARHGDIG | 0.06288 |
| `UUUAAACUCAGGAUAGAUG` | REG4 | -0.3097 |
| `UCAGGACUCAAGAACCUGC` | MRPL19 | 0.4955 |
| `UUCGGUGAAGCUCCAAUGG` | POLA1 | -0.8233 |
| `UGAAUAACAUGGGUAGGUC` | HIVEP2 | 0.2693 |
| `UAUGCAGAAAGUCCAAGGC` | MKNK2 | -0.09841 |

From PubChem BioAssay record AID1159506 (NCATS, 2015).